These are yes or no findings as the source states them, for the method shown. Binding seen in cells or lysates may run through a third protein. Some results given as binding are weak or reduced against the parent protein; the word gives no strength.
Target: Emerald GFP-Cdc42 (UniProt P60953)
Assay: co-IP; GFP-Cdc42 expressed in WT MEFs for 48 h and isolated with GFP-Trap agarose (Chromotek); bound endogenous N-WASP detected by immunoblot; cells uninfected or infected for 30 min with WT or ΔsopE2 S. Tm

The chains behind the UniProt entries cited, without tags or fusion partners.
UniProt P60953: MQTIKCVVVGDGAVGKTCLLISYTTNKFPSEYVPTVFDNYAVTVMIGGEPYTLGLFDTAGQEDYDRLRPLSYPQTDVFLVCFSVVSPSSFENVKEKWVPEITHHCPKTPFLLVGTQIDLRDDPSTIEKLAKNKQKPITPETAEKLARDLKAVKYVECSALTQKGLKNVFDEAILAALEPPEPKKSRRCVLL
UniProt Q91YD9: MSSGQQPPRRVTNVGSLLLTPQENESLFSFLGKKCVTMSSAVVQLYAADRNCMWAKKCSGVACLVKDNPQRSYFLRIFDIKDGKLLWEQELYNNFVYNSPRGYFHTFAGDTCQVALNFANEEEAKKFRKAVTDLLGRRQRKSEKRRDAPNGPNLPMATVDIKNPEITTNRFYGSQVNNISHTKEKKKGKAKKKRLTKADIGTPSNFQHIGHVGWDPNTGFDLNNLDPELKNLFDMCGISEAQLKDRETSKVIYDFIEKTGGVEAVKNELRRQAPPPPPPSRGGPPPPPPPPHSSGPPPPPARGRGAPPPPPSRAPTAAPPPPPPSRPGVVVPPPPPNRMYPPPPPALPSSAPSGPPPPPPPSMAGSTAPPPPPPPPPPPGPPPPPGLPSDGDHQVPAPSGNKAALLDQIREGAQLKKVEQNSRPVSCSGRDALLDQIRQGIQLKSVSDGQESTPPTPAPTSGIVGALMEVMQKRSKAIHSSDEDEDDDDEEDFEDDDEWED

Substance: N-WASP (from UniProt Q91YD9 1-501)
- binding: binds
